From the supplement of paper PMC4604168 (melanoma cell lines)
The other results are listed elsewhere or left out. Repeats are few or missing, and single values can be far off.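 Imaging used 1,536-well plates; nuclei positive for cleaved PARP by antibody were divided by total DNA-stained nuclei to yield the apoptosis fraction. Doses for screening kept most cells viable, and cell lines differ markedly in resting and induced cleaved-PARP levels.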

What was measured:
Test in all cases: cleaved PARP positive nuclei fraction relative to DMSO control; melanoma cells; higher = more apoptosis
Conditions in all cases: library dose: low library concentration; 72 h
MZ2-MEL = test system: MZ2-MEL
MeWo = test system: MeWo
RPMI7951 = test system: RPMI7951
RVH-421 = test system: RVH-421
SkMel28 = test system: SkMel28
SkMel30 = test system: SkMel30
SkMel5 = test system: SkMel5
UACC257 = test system: UACC257
UACC62 = test system: UACC62

| SMILES | cleaved PARP positive nuclei fraction (MZ2-MEL) | cleaved PARP positive nuclei fraction (MeWo) | cleaved PARP positive nuclei fraction (RPMI7951) | cleaved PARP positive nuclei fraction (RVH-421) | cleaved PARP positive nuclei fraction (SkMel28) | cleaved PARP positive nuclei fraction (SkMel30) | cleaved PARP positive nuclei fraction (SkMel5) | cleaved PARP positive nuclei fraction (UACC257) | cleaved PARP positive nuclei fraction (UACC62) |
| --- | --- | --- | --- | --- | --- | --- | --- | --- | --- |
| O=C(CCCCCCC(=O)Nc1ccccc1)NO [vorinostat] + CCN(CC)CCCCNc1ncc2cc(-c3cc(OC)cc(OC)c3)c(NC(=O)NC(C)(C)C)nc2n1 [PD173074] (first compound 0.08 µM, partner dose 0.1 µM) | 94.8% | 106% | 85.5% | 173% | 108% | 43% | 34.9% | 119% | 40.7% |
| COCC[n+]1c2c(n(Cc3cnccn3)c1C)C(=O)c1ccccc1C2=O + CCc1ccc(CCOc2ccc(CC3SC(=O)NC3=O)cc2)nc1 [pioglitazone] (first compound 0.0004 µM, partner dose 2 µM) | 154% | 108% | 103% | 97.8% | 127% | 23.6% | 209% | 61.3% | 93.6% |
| O=C(Nc1cccc(Cl)c1)Nc1ncc(CCNc2ncnc3ccsc23)s1 + COc1ccc(COc2ccc(Cc3cnc(N)nc3N)cc2OC)cc1 [GW2580] (first compound 0.0008 µM, partner dose 1 µM) | 54.7% | 31.8% | 279% | 111% | 70.2% | 20.5% | 60.2% | 110% | 41.6% |
| CC1(C)NC(=O)N(c2ccc([N+](=O)[O-])c(C(F)(F)F)c2)C1=O [nilutamide] + O=C1NC(=O)/C(=C/c2ccc(-c3ccc(F)cc3O)o2)S1 [AS252424] (first compound 1 µM, partner dose 1 µM) | 179% | 21.4% | 50.7% | 51.1% | 120% | 23% | 29.1% | 178% | 92.7% |
| CO[C@@H]1[C@H](N(C)C(=O)c2ccccc2)C[C@H]2O[C@]1(C)n1c3ccccc3c3c4c(c5c6ccccc6n2c5c31)C(=O)NC4 [Midostaurin] + COc1ccc(COc2ccc(Cc3cnc(N)nc3N)cc2OC)cc1 [GW2580] (first compound 0.08 µM, partner dose 1 µM) | 125% | 355% | 94.7% | 19.1% | 108% | 243% | 78.6% | 61.6% | 168% |
| C#Cc1cccc(Nc2ncnc3cc(OCCOC)c(OCCOC)cc23)c1 [erlotinib] + Oc1nc(-c2ccc(C(F)(F)F)cc2)nc2c1CSCC2 [XAV939] (first compound 0.8 µM, partner dose 2 µM) | 155% | 28.7% | 94.1% | 52.2% | 132% | 29.6% | 60.2% | 264% | 84.6% |
| COc1cc(Nc2ncc(F)c(Nc3ccc4c(n3)NC(=O)C(C)(C)O4)n2)cc(OC)c1OC [Tamatinib] + CCc1ccc(CCOc2ccc(CC3SC(=O)NC3=O)cc2)nc1 [pioglitazone] (first compound 0.4 µM, partner dose 2 µM) | 128% | 34.8% | 229% | 36.3% | 237% | 24.6% | 66.8% | 122% | 351% |
| Cc1nc(Nc2ncc(C(=O)Nc3c(C)cccc3Cl)s2)cc(N2CCN(CCO)CC2)n1 [dasatanib] + CC(C)CCN1c2nc(Nc3cc(F)c(O)c(F)c3)ncc2N(C)C(=O)C1C [BID1870] (first compound 0.004 µM, partner dose 0.2 µM) | 280% | 159% | 143% | 56.9% | 171% | 69.8% | 89.3% | 195% | 64.5% |
| O=C(Nc1cccc(Cl)c1)Nc1ncc(CCNc2ncnc3ccsc23)s1 + COc1ccc(-c2ccc3c(N4CCOCC4)nc(N4C[C@@H](C)O[C@@H](C)C4)nc3n2)cc1CO [KU0063794] (first compound 0.0008 µM, partner dose 0.02 µM) | 108% | 26.2% | 169% | 214% | 148% | 36.4% | 29.2% | 129% | 168% |
| COc1cc(Nc2ncc(F)c(Nc3ccc4c(n3)NC(=O)C(C)(C)O4)n2)cc(OC)c1OC [Tamatinib] + c1cc(-c2cnn3cc(-c4ccc(OCCN5CCCCC5)cc4)cnc23)ccn1 [Dorsomorphin] (first compound 0.4 µM, partner dose 0.4 µM) | 186% | 117% | 92.5% | 87.7% | 116% | 91.9% | 65.7% | 286% | 60.9% |
| Cc1ccc(NC(=O)c2cccc(N(C)C)c2)cc1NC(=O)c1ccc(O)cc1 + COc1ccc(-c2ccc3c(N4CCOCC4)nc(N4C[C@@H](C)O[C@@H](C)C4)nc3n2)cc1CO [KU0063794] (first compound 2 µM, partner dose 0.02 µM) | 80% | 29% | 39.7% | 40.2% | 134% | 78.2% | 74.8% | 107% | 47.9% |
| O=C(Nc1cccc(Cl)c1)Nc1ncc(CCNc2ncnc3ccsc23)s1 + COc1cc(N2CCC(N3CCN(C)CC3)CC2)ccc1Nc1ncc(Cl)c(Nc2ccccc2S(=O)(=O)C(C)C)n1 [NVP-TAE684] (first compound 0.0008 µM, partner dose 0.08 µM) | 64.1% | 125% | 158% | 14.6% | 75.1% | 346% | 35.5% | 94.2% | 78% |
| Cn1cncc1[C@@](N)(c1ccc(Cl)cc1)c1ccc2c(c1)c(-c1cccc(Cl)c1)cc(=O)n2C [tipifarnib] + O=C1NC(=O)/C(=C/c2ccc(-c3ccc(F)cc3O)o2)S1 [AS252424] (first compound 0.01 µM, partner dose 1 µM) | 38.7% | 30.3% | 97.9% | 66.9% | 94.4% | 279% | 80.7% | 280% | 125% |
| Cc1nc(Nc2ncc(C(=O)Nc3c(C)cccc3Cl)s2)cc(N2CCN(CCO)CC2)n1 [dasatanib] + COc1cc(N2CCC(N3CCN(C)CC3)CC2)ccc1Nc1ncc(Cl)c(Nc2ccccc2S(=O)(=O)C(C)C)n1 [NVP-TAE684] (first compound 0.004 µM, partner dose 0.08 µM) | 304% | 55.7% | 131% | 107% | 285% | 16.7% | 99.5% | 393% | 114% |
| C[C@]1(c2nc3c(C(N)=O)cccc3[nH]2)CCCN1 [Veliparib] + COC(=O)c1sccc1S(=O)(=O)Nc1ccc(Nc2ccccc2)cc1OC [GSK0660] (first compound 1.4 µM, partner dose 1 µM) | 139% | 231% | 70.2% | 103% | 131% | 132% | 255% | 261% | 125% |
| C[C@@H]1CCN(C(=O)CC#N)C[C@@H]1N(C)c1ncnc2[nH]ccc12 + COc1cc(N2CCC(N3CCN(C)CC3)CC2)ccc1Nc1ncc(Cl)c(Nc2ccccc2S(=O)(=O)C(C)C)n1 [NVP-TAE684] (first compound 1 µM, partner dose 0.08 µM) | 111% | 170% | 91.4% | 104% | 85.3% | 64.2% | 69.2% | 163% | 79.9% |
| O=C(CCCCCCC(=O)Nc1ccccc1)NO [vorinostat] + N#Cc1c(O)c2c(-c3ccc(-c4ccccc4O)cc3)csc2[nH]c1=O [A769662] (first compound 0.08 µM, partner dose 2 µM) | 152% | 54% | 205% | 62% | 201% | 42.4% | 29.7% | 81.2% | 48.6% |
| Cn1c(Nc2ccc(C(F)(F)F)cc2)nc2cc(Oc3ccnc(-c4ncc(C(F)(F)F)[nH]4)c3)ccc21 + COc1ccc(-c2ccc3c(N4CCOCC4)nc(N4C[C@@H](C)O[C@@H](C)C4)nc3n2)cc1CO [KU0063794] (first compound 0.08 µM, partner dose 0.02 µM) | 267% | 75.9% | 70% | 105% | 193% | 54.2% | 53.6% | 636% | 122% |
| Cn1cncc1[C@@](N)(c1ccc(Cl)cc1)c1ccc2c(c1)c(-c1cccc(Cl)c1)cc(=O)n2C [tipifarnib] + O=C(Nc1ccccc1)c1cc([N+](=O)[O-])ccc1Cl [GW9662] (first compound 0.01 µM, partner dose 2 µM) | 18.9% | 258% | 182% | 197% | 85.8% | 130% | 52.8% | 107% | 91.6% |
| Cc1ccc(NC(=O)c2cccc(N(C)C)c2)cc1NC(=O)c1ccc(O)cc1 + O=C1NC(=O)/C(=C/c2ccc(-c3ccc(F)cc3O)o2)S1 [AS252424] (first compound 2 µM, partner dose 1 µM) | 74.6% | 30.3% | 86.1% | 54.7% | 93.3% | 329% | 28.5% | 117% | 268% |
| COCC[n+]1c2c(n(Cc3cnccn3)c1C)C(=O)c1ccccc1C2=O + Cn1cc(/C=C2\C(=O)Nc3cccnc32)c2ccccc21 [GW441756] (first compound 0.0004 µM, partner dose 0.4 µM) | 134% | 81% | 332% | 65.7% | 103% | 31.6% | 68.8% | 81.8% | 177% |
| OCCn1cc(-c2cnc3nnn(Cc4ccc5ncccc5c4)c3n2)cn1 + CC(C)CCN1c2nc(Nc3cc(F)c(O)c(F)c3)ncc2N(C)C(=O)C1C [BID1870] (first compound 1 µM, partner dose 0.2 µM) | 29.6% | 50.9% | 20.2% | 41.7% | 123% | 214% | 57.2% | 59.3% | 75.4% |
| C[C@]1(c2nc3c(C(N)=O)cccc3[nH]2)CCCN1 [Veliparib] + c1cc(-c2cnn3cc(-c4ccc(OCCN5CCCCC5)cc4)cnc23)ccn1 [Dorsomorphin] (first compound 1.4 µM, partner dose 0.4 µM) | 178% | 27.1% | 100% | 66.4% | 174% | 28.2% | 63.6% | 132% | 42.1% |
| C[C@]1(c2nc3c(C(N)=O)cccc3[nH]2)CCCN1 [Veliparib] + COc1cc2ncnc(Nc3ccc(Oc4ccccc4)cc3)c2cc1OC [SrcI1] (first compound 1.4 µM, partner dose 2 µM) | 101% | 273% | 69.4% | 105% | 197% | 37.3% | 38% | 195% | 693% |

Given tab-delimited: part of the list above.
SMILES	cleaved PARP positive nuclei fraction (MZ2-MEL)	cleaved PARP positive nuclei fraction (MeWo)	cleaved PARP positive nuclei fraction (RPMI7951)	cleaved PARP positive nuclei fraction (RVH-421)	cleaved PARP positive nuclei fraction (SkMel28)	cleaved PARP positive nuclei fraction (SkMel30)	cleaved PARP positive nuclei fraction (SkMel5)	cleaved PARP positive nuclei fraction (UACC257)	cleaved PARP positive nuclei fraction (UACC62)
Cn1c(Nc2ccc(C(F)(F)F)cc2)nc2cc(Oc3ccnc(-c4ncc(C(F)(F)F)[nH]4)c3)ccc21 + COc1ccc(-c2ccc3c(N4CCOCC4)nc(N4C[C@@H](C)O[C@@H](C)C4)nc3n2)cc1CO [KU0063794] (first compound 0.08 µM, partner dose 0.02 µM)	267%	75.9%	70%	105%	193%	54.2%	53.6%	636%	122%
Cn1cncc1[C@@](N)(c1ccc(Cl)cc1)c1ccc2c(c1)c(-c1cccc(Cl)c1)cc(=O)n2C [tipifarnib] + O=C(Nc1ccccc1)c1cc([N+](=O)[O-])ccc1Cl [GW9662] (first compound 0.01 µM, partner dose 2 µM)	18.9%	258%	182%	197%	85.8%	130%	52.8%	107%	91.6%
Cc1ccc(NC(=O)c2cccc(N(C)C)c2)cc1NC(=O)c1ccc(O)cc1 + O=C1NC(=O)/C(=C/c2ccc(-c3ccc(F)cc3O)o2)S1 [AS252424] (first compound 2 µM, partner dose 1 µM)	74.6%	30.3%	86.1%	54.7%	93.3%	329%	28.5%	117%	268%
COCC[n+]1c2c(n(Cc3cnccn3)c1C)C(=O)c1ccccc1C2=O + Cn1cc(/C=C2\C(=O)Nc3cccnc32)c2ccccc21 [GW441756] (first compound 0.0004 µM, partner dose 0.4 µM)	134%	81%	332%	65.7%	103%	31.6%	68.8%	81.8%	177%
